This passage reports AC50 results from PubChem BioAssay AID445 (National Center for Advancing Translational Sciences (NCATS), 2006).

The other results are listed elsewhere or left out. Shown are side measurements of this screen, not its main read-out; they come without a call. Compounds called inactive in the main read-out are mostly missing here. Words in brackets tell the shape of the fitted curve; partial curves, single points and poor fits give uncertain potencies.

The experiment can be described thus: IkB Signaling. The settings on record: ABC-DLBCL IkBa-CBG/CBR dual luciferase ratio (green luciferase fused to IkBa over red control in OCI-Ly3 lymphoma cells), 4 h; measured here: control luc red channel unless noted. The essentials:
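Curves were fitted separately to fusion (green), unfused (red) and ratio luminescence, then classed by r2, magnitude and activity. Cells: OCI-Ly3, 4 h compound plus doxycycline at 37C; 10 uM MG-132 defined full response.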
A word on the AC50: it is the midpoint of the concentration-response curve, whichever way the signal moves. As for `O=C1c2[nH]nc(-c3ccccc3O)c2C(c2ccccc2)N1Cc1ccco1` (stereo not drawn), the AC50 is 25.1 µM [falling, partial curve].

Regarding `Cc1ccc(C(C(=O)NCc2ccco2)N(CCc2ccccc2)C(=O)Cn2nnc3ccccc32)o1` (stereo not drawn), the AC50 is 31.6 µM [falling, partial curve].

Take `CCc1c(C)sc2c1CCN(C(=O)Nc1cc(OC)c(OC)c(OC)c1)C2c1ccccc1` (stereo not drawn): the AC50 is 10 µM [falling, partial curve].

For `COc1ccc(N(C(=O)/C=C\C(=O)Nc2ccc(Cl)cc2)C(C(=O)NCc2ccco2)c2ccc(C)cc2)cc1` (stereo not drawn), the AC50 is 25.1 µM [falling, partial curve].

Consider `COc1ccc(NC(=O)CCS(=O)(=O)c2nc(-c3cccs3)cc(C(F)(F)F)n2)cc1OC`, for which the half-maximal activity concentration (AC50) is 3.98 µM [falling, partial curve].

With `COc1ccccc1NC(=O)Cn1c(=O)n(Cc2ccc3c(c2)OCO3)c(=O)c2oc3ccccc3c21`, the AC50 is 15.8 µM [falling, single point].

As to `Oc1ccc(N=Cc2ccc(-c3cccs3)s2)cc1`, the AC50 was 5.01 µM [rising, full curve] [measured here: IkB-luc green channel].

Consider `O=C(CNCCC1=CCCCC1)Nc1ccccc1N1CCCCC1`, for which the AC50 was 25.1 µM [falling, partial curve].

`Cc1ccc(NC(=O)CN(c2ccccc2)S(=O)(=O)N(C)C)cc1Cl`: the AC50 was 15.8 µM [falling, partial curve].

`Cc1cccc(C(=O)Nc2cccc(C(=O)OCc3cc(=O)n4ccsc4n3)c2)c1`: the AC50 was 0.0398 µM [falling, full curve].

With `CCOC(=O)c1ccc2ncc(C(=O)OCC)c(Nc3ccc(C)c(Br)c3)c2c1`, the AC50 is 20 µM [falling, partial curve].

With `CCC(C(=O)NCc1ccccc1)n1ncn2c(cc3occc32)c1=O` (stereo not drawn), the AC50 was 15.8 µM [falling, single point].

`Cc1ccc(NC(=O)c2cc3c(=O)n(Cc4cccnc4)ccc3nc2C)cc1F`: the AC50 was 3.98 µM [rising, partial curve].

With `COc1ccc(Br)cc1CNC(=O)CN1C(=O)CSc2ccc(S(=O)(=O)N3CCOCC3)cc21`, the AC50 was 39.8 µM [falling, single point].

Consider `COc1ccc(OC(C)C(=O)NCc2nc(-c3ccc(Cl)cc3)no2)cc1` (stereo not drawn), for which the AC50 was 15.8 µM [falling, partial curve].

For `NS(=O)(=O)c1cc2c(cc1Cl)NC=NS2(=O)=O`, the AC50 is 15.8 µM [rising, partial curve] [measured here: IkB-luc green channel].

On to `COc1cc(OC)cc(C(=O)Nc2ccc(S(=O)(=O)Nc3onc(C)c3C)cc2)c1`, for which the half-maximal activity concentration (AC50) is 20 µM [falling, single point].

For the compound `O=C(Cn1nc(C(F)(F)F)c2c1CCCC2)Nc1ccc(Cl)cc1`, the AC50 is 25.1 µM [falling, single point].

Take `CCOC(=O)c1c(C)[nH]c(CCC(=O)Nc2cc(C)cc(C)c2)c1C`: the AC50 was 15.8 µM [falling, partial curve].

In the case of `O=C(Cn1ccc2ccccc2c1=O)NCCC(=O)N1CCN(c2cccc(C(F)(F)F)c2)CC1`, the AC50 is 25.1 µM [falling, partial curve].

Take `O=C(NCCc1ccccc1)c1ccc(CSc2nc3ccncc3n2Cc2ccccc2)cc1`: the AC50 was 12.6 µM [falling, partial curve].

As for `CCCn1cc(S(=O)(=O)c2ccccc2)c(=O)c2cc(F)c(N3CCCC3)cc21`, the AC50 is 1 µM [rising, full curve].

Regarding `COCc1c(C(=O)OCC(=O)N2c3ccccc3NC(=O)C2(C)C)oc2ccccc12`, the AC50 was 31.6 µM [falling, single point].

With `CCCn1ccc2c(OCC(=O)Nc3ccc(F)cc3F)cccc2c1=O`, the AC50 is 39.8 µM [falling, single point].

`O=C(Cc1cccs1)N1CCCC(c2nc(-c3ccc(S(=O)(=O)N4CCCC4)cc3)no2)C1` (stereo not drawn): the AC50 is 39.8 µM [falling, single point].

Regarding `Cc1cccc(OCC(=O)Nc2ccc3c(c2)N(C)C(=O)c2ccccc2S3)c1`, the AC50 is 10 µM [falling, partial curve].

As to `Cc1cccc(NC(=O)CSc2nc3c([nH]c4ccccc43)c(=O)n2-c2ccc(F)cc2)c1C`, the AC50 was 6.31 µM [falling, full curve, poor fit].

Turning to `Cc1ccc(C(=O)N/C(=C\c2cn(S(=O)(=O)N(C)C)c3ccccc23)C(=O)NCCCn2ccnc2)cc1`, the AC50 is 25.1 µM [falling, partial curve].

Take `CCn1cc(C(=O)NC(C)c2ccccc2)c(=O)c2cc(S(=O)(=O)N3CCc4ccccc4C3)ccc21` (stereo not drawn): the half-maximal activity concentration (AC50) is 2.51 µM [falling, full curve].

With `Cc1ccc(NC(=O)Cn2cc(S(=O)(=O)N3CCCC3)c(S(=O)(=O)N3CCCC3)c2)c(C)c1`, the AC50 was 25.1 µM [falling, single point].

Turning to `Cc1occc1C(=O)N1CCN(c2ccc(Cl)c(Cl)c2)CC1`, the AC50 is 15.8 µM [falling, partial curve].

Take `O=C(CN(C(=O)CNC(=O)c1ccco1)c1ccc(Cl)c(Cl)c1)NC1CCCCC1`: the AC50 is 12.6 µM [falling, partial curve].

Consider `O=C(NCCc1ccc(Cl)cc1)c1cccn1-c1nnc(N2CCCC2)s1`, for which the AC50 was 20 µM [falling, partial curve, poor fit].

Take `COc1ccc(C(=O)c2cn(CC(=O)Nc3ccc4c(c3)OCO4)c3ccc(OC)cc3c2=O)cc1`: the AC50 is 3.98 µM [falling, partial curve].

`CC(=O)N1c2ccccc2C(=O)C1N1CCN(c2cc(Cl)ccc2C)CC1` (stereo not drawn): the AC50 was 25.1 µM [falling, single point].

`CC(=O)c1ccc(N2CCN(S(=O)(=O)c3ccc4[nH]c5c(c4c3)CCCCC5)CC2)cc1`: the AC50 is 5.01 µM [falling, partial curve].

With `O=C(COc1ccc(S(=O)(=O)N2CCOCC2)cc1)Nc1ccc(Cl)c(C(F)(F)F)c1`, the AC50 was 31.6 µM [falling, single point].

For `Cn1c(-n2c(CCN3C(=O)c4ccccc4C3=O)nc3ccccc3c2=O)nc2ccccc21`, the AC50 is 10 µM [falling, partial curve].
